## Drug screen on melanoma cell lines: cell count

Values as published with doi:10.1371/journal.pone.0140310, rounded.

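The test systems are human melanoma cell lines, treated with two drugs together for 72 h and then stained and imaged. Values are the number of DAPI-stained nuclei as a percentage of the DMSO control: 100 is no effect, lower means fewer cells. Every drug was used at one fixed concentration, the lower of two screened (a fifth of the higher). These are primary screening values without error estimates.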 This is part of the screen, not chosen by result. An entry leaves out what has no value listed here. A dash means that no value is listed here.

Drugs:
GW0742: Cc1cc(SCc2sc(-c3ccc(C(F)(F)F)c(F)c3)nc2C)ccc1OCC(=O)O at 2 µM
bortezomib: CC(C)C[C@H](NC(=O)[C@H](Cc1ccccc1)NC(=O)c1cnccn1)B(O)O at 0.001 µM
KU-55933: O=c1cc(-c2cccc3c2Sc2ccccc2S3)oc(N2CCOCC2)c1 at 1 µM
SNS-314: O=C(Nc1cccc(Cl)c1)Nc1ncc(CCNc2ncnc3ccsc23)s1 at 0.0008 µM
PD173074: CCN(CC)CCCCNc1ncc2cc(-c3cc(OC)cc(OC)c3)c(NC(=O)NC(C)(C)C)nc2n1 at 0.1 µM
pioglitazone: CCc1ccc(CCOc2ccc(CC3SC(=O)NC3=O)cc2)nc1 (configuration not stated) at 2 µM
ZM336372: Cc1ccc(NC(=O)c2cccc(N(C)C)c2)cc1NC(=O)c1ccc(O)cc1 at 2 µM
dasatinib: Cc1nc(Nc2ncc(C(=O)Nc3c(C)cccc3Cl)s2)cc(N2CCN(CCO)CC2)n1 at 0.004 µM
tamatinib: COc1cc(Nc2ncc(F)c(Nc3ccc4c(n3)NC(=O)C(C)(C)O4)n2)cc(OC)c1OC at 0.4 µM

Drugs	A101D	IPC-298	MEL-HO	G-361	A375	LB2518-MEL
pioglitazone + SNS-314	96.6	94.1	99.0	101	83.6	84.2
PD173074 + pioglitazone	98.2	99.2	100	89.6	97.4	91.2
PD173074 + SNS-314	104	105	93.1	99.6	88.6	91.3
tamatinib + bortezomib	48.2	73.3	93.9	8.6	81.6	47.2
dasatinib + pioglitazone	88.9	93.5	84.3	96.5	83.4	95.9
SNS-314 + KU-55933	116	93.0	98.3	86.2	97.4	138
KU-55933 + ZM336372	105	91.7	96.2	113	95.9	104
PD173074 + GW0742	103	101	99.7	112	83.9	103
KU-55933 + bortezomib	32.6	70.2	74.1	4.8	-	48.4
GW0742 + tamatinib	96.6	86.3	99.2	103	96.5	74.7
pioglitazone + tamatinib	81.5	85.2	98.4	83.0	96.4	99.5
PD173074 + tamatinib	91.2	75.6	91.2	112	103	84.2
KU-55933 + tamatinib	97.4	88.6	84.3	95.4	83.1	95.4
GW0742 + dasatinib	75.8	100	69.6	94.1	77.6	84.6
ZM336372 + bortezomib	39.9	68.1	100	7.0	78.9	26.4
ZM336372 + GW0742	93.7	79.6	76.5	97.7	95.1	89.5
pioglitazone + KU-55933	100	95.5	97.8	115	110	84.5
ZM336372 + PD173074	94.3	76.6	92.0	99.1	98.1	85.4
PD173074 + dasatinib	90.2	98.0	94.5	113	75.6	102
pioglitazone + ZM336372	105	80.8	83.8	106	119	110
KU-55933 + dasatinib	90.5	89.7	85.3	87.3	79.7	107

For reference, 2 entries once more:

{"drugs": "KU-55933 + ZM336372", "A101D": 105, "IPC-298": 91.7, "MEL-HO": 96.2, "G-361": 113, "A375": 95.9, "LB2518-MEL": 104}
{"drugs": "PD173074 + tamatinib", "A101D": 91.2, "IPC-298": 75.6, "MEL-HO": 91.2, "G-361": 112, "A375": 103, "LB2518-MEL": 84.2}